Laboratory results taken from article doi:10.1101/2020.06.12.148171.
Results are given in words; binding and its absence hold for the method and conditions named. Binding seen in cells or lysates may run through a third protein. A result given as binding can be weak or reduced; the word gives no strength.

Sequences of proteins named here, by UniProt entry; tags and fusion partners are left off. A change or cut given only in a name is not applied to a line headed by its entry.
UniProt P83887: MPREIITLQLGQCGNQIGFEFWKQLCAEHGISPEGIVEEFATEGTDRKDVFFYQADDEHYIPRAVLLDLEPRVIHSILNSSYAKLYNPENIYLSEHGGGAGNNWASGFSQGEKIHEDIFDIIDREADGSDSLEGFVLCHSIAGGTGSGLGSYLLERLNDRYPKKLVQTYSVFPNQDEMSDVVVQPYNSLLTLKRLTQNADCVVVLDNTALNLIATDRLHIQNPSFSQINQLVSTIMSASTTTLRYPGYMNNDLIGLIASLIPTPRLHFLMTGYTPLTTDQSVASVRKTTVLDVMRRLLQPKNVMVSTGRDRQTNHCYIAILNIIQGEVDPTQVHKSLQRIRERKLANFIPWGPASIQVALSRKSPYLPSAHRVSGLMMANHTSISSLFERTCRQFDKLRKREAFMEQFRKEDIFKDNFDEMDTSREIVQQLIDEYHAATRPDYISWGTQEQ
UniProt P33215: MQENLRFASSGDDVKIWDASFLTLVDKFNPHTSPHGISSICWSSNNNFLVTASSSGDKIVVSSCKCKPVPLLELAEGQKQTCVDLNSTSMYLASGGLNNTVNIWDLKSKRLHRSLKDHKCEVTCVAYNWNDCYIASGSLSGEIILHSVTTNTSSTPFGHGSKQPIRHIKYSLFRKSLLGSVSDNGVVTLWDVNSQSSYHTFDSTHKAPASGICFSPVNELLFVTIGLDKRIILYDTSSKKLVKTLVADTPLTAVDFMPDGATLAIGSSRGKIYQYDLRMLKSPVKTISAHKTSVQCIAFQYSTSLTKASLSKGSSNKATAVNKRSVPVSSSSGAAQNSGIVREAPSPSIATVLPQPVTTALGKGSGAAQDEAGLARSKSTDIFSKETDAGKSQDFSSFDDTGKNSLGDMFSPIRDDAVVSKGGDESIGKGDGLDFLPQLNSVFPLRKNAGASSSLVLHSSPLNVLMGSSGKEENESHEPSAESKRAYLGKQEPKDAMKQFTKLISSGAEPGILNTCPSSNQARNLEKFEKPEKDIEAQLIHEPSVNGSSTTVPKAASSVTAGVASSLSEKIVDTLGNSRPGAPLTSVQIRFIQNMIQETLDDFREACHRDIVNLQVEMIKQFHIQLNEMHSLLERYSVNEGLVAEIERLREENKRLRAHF

Target: γ-tubulin (mouse (endogenous in MEFs)) (UniProt P83887)
Assay: proximity ligation

Q: Which binding does the source give for Nedd1 (from UniProt P33215 1-660) here?
A: The binding was “binds”.
